{"source": "PubChem BioAssay AID1259254 – NCATS – 2017", "aim": "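Gene knock-downs that lead to re-replication, shown by excess G2 DNA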 (primary screen)", "cell system": "human HCT116 colorectal cancer cells", "reagent": "single siRNA against human genes", "timing": "3 days", "read-out": "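Nuclei stained with Hoechst and imaged; cell-cycle phase assigned by DNA content; G2 share scaled per plate, non-targeting siRNA 0%, GMNN siRNA 100%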", "reading the numbers": "G2 robust z-score: higher = more G2 cells, more excess DNA replication", "active means": "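Active siRNAs have a G2 robust z of 5 or more median absolute deviations over the median, which in these data means about 38% or higher of GMNN control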", "note": "Here is an unselected part of about 59,000 reagents tested. Of all reagents, about 1,550 (2.6%) are marked active. 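G2 share is only a proxy for re-replication; each gene was hit by three separate siRNAs, and active genes were retested.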 Unmarked entries are inactive. Reagents against one gene are numbered here. Further read-outs or replicates are left out here. Reagent sequences are not shown. The record does not give: the amount of reagent."}
{"gene symbol":"CRB2 (GeneID 286204)","reagent":1,"G2 robust z-score":3.53}
{"gene symbol":"CRB2 (GeneID 286204)","reagent":2,"G2 robust z-score":-0.224}
{"gene symbol":"CRB2 (GeneID 286204)","reagent":3,"G2 robust z-score":-0.587}
{"gene symbol":"VNN1 (GeneID 8876)","reagent":1,"G2 robust z-score":0.0136}
{"gene symbol":"VNN1 (GeneID 8876)","reagent":2,"G2 robust z-score":3.49}
{"gene symbol":"VNN1 (GeneID 8876)","reagent":3,"G2 robust z-score":0.0737}
{"gene symbol":"KIN (GeneID 22944)","reagent":1,"G2 robust z-score":0.591}
{"gene symbol":"KIN (GeneID 22944)","reagent":2,"G2 robust z-score":-0.436}
{"gene symbol":"KIN (GeneID 22944)","reagent":3,"G2 robust z-score":-0.424}
{"gene symbol":"SLC13A3 (GeneID 64849)","reagent":1,"G2 robust z-score":-0.724}
{"gene symbol":"SLC13A3 (GeneID 64849)","reagent":2,"G2 robust z-score":0.332}
{"gene symbol":"SLC13A3 (GeneID 64849)","reagent":3,"G2 robust z-score":1.41}
{"gene symbol":"SERPINA2 (GeneID 390502)","reagent":1,"G2 robust z-score":2.77}
{"gene symbol":"SERPINA2 (GeneID 390502)","reagent":2,"G2 robust z-score":0.942}
{"gene symbol":"SERPINA2 (GeneID 390502)","reagent":3,"G2 robust z-score":2.56}

The list goes on; the last 3 above are carried over.
{"gene symbol":"SERPINA2 (GeneID 390502)","reagent":1,"G2 robust z-score":2.77}
{"gene symbol":"SERPINA2 (GeneID 390502)","reagent":2,"G2 robust z-score":0.942}
{"gene symbol":"SERPINA2 (GeneID 390502)","reagent":3,"G2 robust z-score":2.56}
{"gene symbol":"CYP2D6 (GeneID 1565)","reagent":1,"G2 robust z-score":-0.334}
{"gene symbol":"CYP2D6 (GeneID 1565)","reagent":2,"G2 robust z-score":-0.497}
{"gene symbol":"CYP2D6 (GeneID 1565)","reagent":3,"G2 robust z-score":0.955}
{"gene symbol":"MRPS35 (GeneID 60488)","reagent":1,"G2 robust z-score":-1.42}
{"gene symbol":"MRPS35 (GeneID 60488)","reagent":2,"G2 robust z-score":0.386}
{"gene symbol":"MRPS35 (GeneID 60488)","reagent":3,"G2 robust z-score":0.438}
{"gene symbol":"LOC284912 (GeneID 284912)","reagent":1,"G2 robust z-score":-0.478}
{"gene symbol":"LOC284912 (GeneID 284912)","reagent":2,"G2 robust z-score":-0.025}
{"gene symbol":"LOC284912 (GeneID 284912)","reagent":3,"G2 robust z-score":-0.857}
